According to the supplement of paper PMC10849652:
Some of the results follow.

Chains of the proteins cited; added tags and fusions are not shown. Lines headed by an entry give the natural chain unless they say otherwise; changes in a name come on top.
UniProt P09543: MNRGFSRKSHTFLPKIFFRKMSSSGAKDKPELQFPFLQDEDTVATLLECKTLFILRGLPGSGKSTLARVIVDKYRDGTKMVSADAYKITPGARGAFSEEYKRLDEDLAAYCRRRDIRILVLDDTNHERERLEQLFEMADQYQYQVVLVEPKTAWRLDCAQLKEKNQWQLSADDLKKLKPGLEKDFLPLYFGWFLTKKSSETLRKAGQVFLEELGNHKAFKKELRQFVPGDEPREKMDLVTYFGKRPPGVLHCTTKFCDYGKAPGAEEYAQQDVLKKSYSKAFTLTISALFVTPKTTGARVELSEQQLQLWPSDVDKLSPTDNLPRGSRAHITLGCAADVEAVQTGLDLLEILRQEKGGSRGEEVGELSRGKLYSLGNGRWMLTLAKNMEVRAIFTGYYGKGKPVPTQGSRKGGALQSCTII
UniProt P51798: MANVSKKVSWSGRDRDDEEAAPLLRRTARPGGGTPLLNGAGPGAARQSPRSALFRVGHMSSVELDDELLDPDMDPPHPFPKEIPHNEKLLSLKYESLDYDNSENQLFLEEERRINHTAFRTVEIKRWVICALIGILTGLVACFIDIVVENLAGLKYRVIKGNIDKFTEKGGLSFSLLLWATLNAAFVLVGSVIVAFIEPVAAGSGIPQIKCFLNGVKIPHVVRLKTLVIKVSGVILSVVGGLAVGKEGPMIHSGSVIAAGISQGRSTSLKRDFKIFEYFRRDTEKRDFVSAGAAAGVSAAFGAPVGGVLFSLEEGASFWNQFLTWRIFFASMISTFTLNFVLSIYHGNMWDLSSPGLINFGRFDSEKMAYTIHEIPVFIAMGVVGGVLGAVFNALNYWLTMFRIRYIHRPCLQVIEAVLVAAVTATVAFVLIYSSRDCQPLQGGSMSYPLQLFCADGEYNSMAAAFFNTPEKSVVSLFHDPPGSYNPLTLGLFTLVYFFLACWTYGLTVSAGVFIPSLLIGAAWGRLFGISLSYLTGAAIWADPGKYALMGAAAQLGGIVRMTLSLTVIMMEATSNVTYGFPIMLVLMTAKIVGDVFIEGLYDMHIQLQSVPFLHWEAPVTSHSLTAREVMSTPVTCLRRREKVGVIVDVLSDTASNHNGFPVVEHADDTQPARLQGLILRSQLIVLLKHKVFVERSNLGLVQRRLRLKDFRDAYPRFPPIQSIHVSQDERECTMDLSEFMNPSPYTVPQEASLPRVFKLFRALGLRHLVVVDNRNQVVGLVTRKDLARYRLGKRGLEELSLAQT
UniProt P62633: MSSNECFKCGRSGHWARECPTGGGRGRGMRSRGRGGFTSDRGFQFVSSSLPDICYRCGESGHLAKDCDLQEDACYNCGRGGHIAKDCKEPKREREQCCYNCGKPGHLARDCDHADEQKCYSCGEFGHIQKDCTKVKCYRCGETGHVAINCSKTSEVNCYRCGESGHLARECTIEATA
UniProt P54105: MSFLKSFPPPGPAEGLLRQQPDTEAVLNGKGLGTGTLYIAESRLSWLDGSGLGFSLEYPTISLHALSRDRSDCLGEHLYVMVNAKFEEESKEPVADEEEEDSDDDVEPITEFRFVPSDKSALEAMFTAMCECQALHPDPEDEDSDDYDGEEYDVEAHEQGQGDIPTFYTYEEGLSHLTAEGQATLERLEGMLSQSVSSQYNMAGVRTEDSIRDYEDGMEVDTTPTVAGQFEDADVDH
UniProt O14967: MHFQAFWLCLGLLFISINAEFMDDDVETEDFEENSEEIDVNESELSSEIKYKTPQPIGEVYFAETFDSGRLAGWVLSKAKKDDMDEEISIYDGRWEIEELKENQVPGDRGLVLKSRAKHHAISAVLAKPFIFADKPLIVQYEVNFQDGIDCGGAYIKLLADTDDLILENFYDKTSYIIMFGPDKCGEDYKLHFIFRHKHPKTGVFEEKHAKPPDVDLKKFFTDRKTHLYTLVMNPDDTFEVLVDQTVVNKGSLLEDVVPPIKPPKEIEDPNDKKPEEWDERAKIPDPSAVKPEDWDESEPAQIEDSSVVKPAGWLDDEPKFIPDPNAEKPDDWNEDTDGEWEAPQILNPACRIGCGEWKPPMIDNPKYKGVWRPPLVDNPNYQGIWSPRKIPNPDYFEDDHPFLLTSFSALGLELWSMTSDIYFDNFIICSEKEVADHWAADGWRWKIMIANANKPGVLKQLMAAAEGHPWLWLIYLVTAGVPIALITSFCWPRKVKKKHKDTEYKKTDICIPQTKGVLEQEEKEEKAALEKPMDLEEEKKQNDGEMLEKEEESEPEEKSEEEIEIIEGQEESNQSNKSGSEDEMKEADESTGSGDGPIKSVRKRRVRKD
UniProt Q96DG6: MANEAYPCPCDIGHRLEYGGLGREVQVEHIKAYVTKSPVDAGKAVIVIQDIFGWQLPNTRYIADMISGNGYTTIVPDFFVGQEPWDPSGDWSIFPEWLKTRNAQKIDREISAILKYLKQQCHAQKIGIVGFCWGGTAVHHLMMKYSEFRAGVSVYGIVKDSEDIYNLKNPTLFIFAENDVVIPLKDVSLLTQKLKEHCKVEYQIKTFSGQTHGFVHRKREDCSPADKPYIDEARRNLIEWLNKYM
UniProt Q8N5K1: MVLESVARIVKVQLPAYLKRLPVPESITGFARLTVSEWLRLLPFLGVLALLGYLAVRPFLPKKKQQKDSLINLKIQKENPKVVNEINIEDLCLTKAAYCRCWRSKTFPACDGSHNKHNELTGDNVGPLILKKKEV
UniProt O14578, whole entry, looked up: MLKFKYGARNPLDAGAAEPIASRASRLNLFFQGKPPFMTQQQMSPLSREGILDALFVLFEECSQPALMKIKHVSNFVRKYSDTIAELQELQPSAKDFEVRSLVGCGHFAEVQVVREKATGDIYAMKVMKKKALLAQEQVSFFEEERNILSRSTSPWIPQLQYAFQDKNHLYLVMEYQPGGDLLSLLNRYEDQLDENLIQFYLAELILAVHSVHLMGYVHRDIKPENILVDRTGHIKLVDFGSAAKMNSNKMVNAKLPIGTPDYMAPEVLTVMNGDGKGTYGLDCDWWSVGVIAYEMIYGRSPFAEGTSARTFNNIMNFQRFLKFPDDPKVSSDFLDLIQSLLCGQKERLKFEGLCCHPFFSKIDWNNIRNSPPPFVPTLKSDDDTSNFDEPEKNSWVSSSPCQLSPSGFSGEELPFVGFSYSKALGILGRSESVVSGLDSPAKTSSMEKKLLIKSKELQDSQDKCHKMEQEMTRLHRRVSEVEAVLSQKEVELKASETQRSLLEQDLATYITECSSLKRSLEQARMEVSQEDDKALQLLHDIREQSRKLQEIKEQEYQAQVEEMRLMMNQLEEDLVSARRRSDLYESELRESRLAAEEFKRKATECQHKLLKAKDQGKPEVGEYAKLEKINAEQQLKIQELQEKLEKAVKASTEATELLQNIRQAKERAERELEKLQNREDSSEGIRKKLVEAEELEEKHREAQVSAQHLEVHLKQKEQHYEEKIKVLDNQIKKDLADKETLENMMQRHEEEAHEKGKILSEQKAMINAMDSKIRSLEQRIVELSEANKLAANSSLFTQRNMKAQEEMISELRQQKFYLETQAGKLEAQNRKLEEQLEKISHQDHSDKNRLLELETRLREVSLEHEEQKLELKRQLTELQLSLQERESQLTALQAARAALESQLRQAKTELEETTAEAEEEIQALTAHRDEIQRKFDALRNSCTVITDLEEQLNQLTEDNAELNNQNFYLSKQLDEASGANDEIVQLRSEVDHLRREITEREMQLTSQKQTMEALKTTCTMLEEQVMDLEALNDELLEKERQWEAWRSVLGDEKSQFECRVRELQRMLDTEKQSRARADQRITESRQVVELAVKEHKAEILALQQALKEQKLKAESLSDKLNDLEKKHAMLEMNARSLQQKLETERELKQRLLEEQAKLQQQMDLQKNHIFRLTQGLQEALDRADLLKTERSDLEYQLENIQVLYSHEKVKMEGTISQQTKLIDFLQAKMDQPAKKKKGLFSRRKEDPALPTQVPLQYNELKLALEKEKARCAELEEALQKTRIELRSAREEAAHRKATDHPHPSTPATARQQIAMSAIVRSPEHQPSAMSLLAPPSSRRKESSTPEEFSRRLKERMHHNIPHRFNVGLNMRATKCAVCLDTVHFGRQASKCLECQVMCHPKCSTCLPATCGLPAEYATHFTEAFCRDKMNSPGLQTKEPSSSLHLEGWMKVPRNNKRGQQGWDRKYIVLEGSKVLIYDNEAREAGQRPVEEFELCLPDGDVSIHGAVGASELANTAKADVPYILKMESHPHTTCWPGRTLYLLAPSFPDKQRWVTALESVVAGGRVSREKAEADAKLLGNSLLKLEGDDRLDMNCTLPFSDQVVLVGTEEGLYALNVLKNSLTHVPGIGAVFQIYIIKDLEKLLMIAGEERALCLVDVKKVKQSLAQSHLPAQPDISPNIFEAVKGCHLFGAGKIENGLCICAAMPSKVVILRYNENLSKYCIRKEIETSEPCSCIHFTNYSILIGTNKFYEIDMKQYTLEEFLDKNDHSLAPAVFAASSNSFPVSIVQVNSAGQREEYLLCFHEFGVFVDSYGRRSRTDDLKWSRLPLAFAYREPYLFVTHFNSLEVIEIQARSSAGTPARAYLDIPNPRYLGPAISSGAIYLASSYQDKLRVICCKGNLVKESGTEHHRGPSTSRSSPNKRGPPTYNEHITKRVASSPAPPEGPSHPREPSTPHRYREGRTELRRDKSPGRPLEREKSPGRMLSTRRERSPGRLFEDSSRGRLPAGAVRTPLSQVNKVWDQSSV
UniProt Q9BQ75: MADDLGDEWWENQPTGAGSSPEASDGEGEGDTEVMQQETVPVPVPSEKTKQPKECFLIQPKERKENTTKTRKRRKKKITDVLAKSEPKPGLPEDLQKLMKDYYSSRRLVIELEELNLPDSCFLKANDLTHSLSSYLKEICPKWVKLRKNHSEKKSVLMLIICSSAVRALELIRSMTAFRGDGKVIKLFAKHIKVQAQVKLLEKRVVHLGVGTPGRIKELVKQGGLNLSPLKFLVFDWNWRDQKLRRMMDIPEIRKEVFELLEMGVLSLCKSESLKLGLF
UniProt Q16740, whole entry, looked up: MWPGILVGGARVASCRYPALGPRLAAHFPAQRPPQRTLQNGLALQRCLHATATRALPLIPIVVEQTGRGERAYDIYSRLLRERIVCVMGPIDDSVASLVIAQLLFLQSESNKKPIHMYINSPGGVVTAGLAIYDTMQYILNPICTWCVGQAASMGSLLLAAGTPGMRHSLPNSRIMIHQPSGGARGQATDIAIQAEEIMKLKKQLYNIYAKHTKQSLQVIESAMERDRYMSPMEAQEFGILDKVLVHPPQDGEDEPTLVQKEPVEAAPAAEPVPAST
UniProt O75175, whole entry, looked up: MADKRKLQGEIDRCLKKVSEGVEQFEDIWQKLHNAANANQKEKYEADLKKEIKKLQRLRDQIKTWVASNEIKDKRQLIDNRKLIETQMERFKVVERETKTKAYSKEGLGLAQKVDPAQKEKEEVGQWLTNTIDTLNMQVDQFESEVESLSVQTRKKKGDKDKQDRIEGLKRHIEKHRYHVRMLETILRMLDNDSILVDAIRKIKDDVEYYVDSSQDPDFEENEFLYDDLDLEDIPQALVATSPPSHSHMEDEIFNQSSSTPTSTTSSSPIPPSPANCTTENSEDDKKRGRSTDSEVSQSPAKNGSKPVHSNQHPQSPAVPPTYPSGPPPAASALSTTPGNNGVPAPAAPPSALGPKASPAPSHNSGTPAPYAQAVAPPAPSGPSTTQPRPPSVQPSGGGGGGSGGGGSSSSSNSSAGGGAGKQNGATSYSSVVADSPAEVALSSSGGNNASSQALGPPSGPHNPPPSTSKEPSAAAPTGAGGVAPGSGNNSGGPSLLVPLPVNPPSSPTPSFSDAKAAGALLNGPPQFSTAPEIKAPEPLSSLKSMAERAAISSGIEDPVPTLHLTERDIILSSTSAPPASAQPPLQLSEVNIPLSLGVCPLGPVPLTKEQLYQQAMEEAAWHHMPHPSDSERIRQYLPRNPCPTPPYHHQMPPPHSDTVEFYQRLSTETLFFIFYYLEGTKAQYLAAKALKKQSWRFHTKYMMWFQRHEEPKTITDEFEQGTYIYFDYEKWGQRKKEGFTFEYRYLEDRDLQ
UniProt Q8WUH1: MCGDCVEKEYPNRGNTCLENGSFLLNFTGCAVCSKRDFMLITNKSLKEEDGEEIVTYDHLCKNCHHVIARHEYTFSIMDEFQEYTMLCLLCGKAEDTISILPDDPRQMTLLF

What was measured:
Experiment in all cases: log2 fold change, soluble protein after heating vs DMSO (PISA); higher = thermal stabilisation; K562 cells, 10 uM, 30 min; active = over 0.2 and 3.5 SD of the protein, either way, in both replicates (recomputed)
[1] = compound: Cc1ccc(NC(=O)c2ccc(CN3CC[C@H](N(C)C)C3)c(C(F)(F)F)c2)cc1Nc1nccc(-c2cncnc2)n1 [bafetinib]
In short: (§1)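 K562 cells at 2×10^6 cells/mL were exposed to 10 μM compound for 30 min, then aliquots were heated for 3 min across 48°C-58°C, pooled, and extracted in PBS containing 0.5% NP-40 at 4°C. The supernatant after 21,000xg for 90 min was taken as soluble protein and measured by TMTpro 16plex LC-MS/MS with channel sums equalised. Thermal stability is reported relative to control samples, with values from duplicates. Fold changes are given on a log2 scale.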

[2] = compound: Cc1cccc(CC(=O)N2CCc3c2ccc(-c2cn(C)c4ncnc(N)c24)c3F)n1
In short: as §1

[3] = compound: Cc1cn(-c2cc(NC(=O)c3ccc(C)c(Nc4nccc(-c5cccnc5)n4)c3)cc(C(F)(F)F)c2)cn1 [nilotinib]
In short: as §1

[4] = compound: Cc1nc(Nc2n[nH]c3c2CN(C(=O)N[C@H](CN(C)C)c2ccccc2)C3(C)C)c2sccc2n1
In short: as §1

[5] = compound: Cc1nc(Nc2ncc(C(=O)Nc3c(C)cccc3Cl)s2)cc(N2CCN(CCO)CC2)n1 [dasatinib]
In short: as §1

[6] = compound: Cc1ncc(-c2ccnc(Nc3ccc(S(C)(=O)=O)cc3)n2)n1C(C)C
In short: as §1

[7] = compound: Cn1cc(-c2ccc3c(c2)CCN3C(=O)Cc2cccc(C(F)(F)F)c2)c2c(N)ncnc21
In short: as §1

[8] = compound: Cn1cc(-c2ccc3nnc(C(F)(F)c4ccc5ncccc5c4)n3n2)cn1
In short: as §1

[9] = compound: Cn1cncc1[C@@](N)(c1ccc(Cl)cc1)c1ccc2c(c1)c(-c1cccc(Cl)c1)cc(=O)n2C [tipifarnib]
In short: as §1

[10] = compound: FC(F)(F)c1ccc(/C=C/c2nc(COc3ccc(CCCCn4ccnn4)cc3)co2)cc1 [mubritinib]
In short: as §1

[11] = compound: NC(=O)Nc1cc(-c2cccc(F)c2)sc1C(=O)N[C@H]1CCCNC1
In short: as §1

[12] = compound: NC(=O)c1cnc(N[C@@H]2CCCC[C@@H]2N)nc1Nc1cccc(-n2nccn2)c1
In short: as §1

[13] = compound: NC1(c2ccc(-c3nc4ccn5c(=O)[nH]nc5c4cc3-c3ccccc3)cc2)CCC1
In short: as §1

[14] = compound: NCC(=O)Nc1ccc(-n2nc(C(F)(F)F)cc2-c2ccc3c(ccc4ccccc43)c2)cc1
In short: as §1

[15] = compound: Nc1ccccc1NC(=O)c1ccc(CNC(=O)OCc2cccnc2)cc1 [entinostat]
In short: as §1

[16] = compound: O=C(CCCCCCC(=O)Nc1ccccc1)NO [vorinostat]
In short: as §1

[17] = compound: O=C(CCCCCCNC(=O)c1cnc(N(c2ccccc2)c2ccccc2Cl)nc1)NO [citarinostat]
In short: as §1

[18] = compound: O=C(O)c1ccc2c(c1)nc(Nc1cccc(Cl)c1)c1ccncc12 [silmitasertib]
In short: as §1

[19] = compound: O=C1NC(=O)C(c2cnc3ccccn23)=C1c1cn2c3c(cc(F)cc13)CN(C(=O)N1CCCCC1)CC2
In short: as §1

[20] = compound: c1cc(OCCN2CCCCC2)cc(-c2n[nH]c3ccc(-c4nnc[nH]4)cc23)c1
In short: as §1

Row | Target | log2 fold change [1] | log2 fold change [2] | log2 fold change [3] | log2 fold change [4] | log2 fold change [5] | log2 fold change [6] | log2 fold change [7] | log2 fold change [8] | log2 fold change [9] | log2 fold change [10] | log2 fold change [11] | log2 fold change [12] | log2 fold change [13] | log2 fold change [14] | log2 fold change [15] | log2 fold change [16] | log2 fold change [17] | log2 fold change [18] | log2 fold change [19] | log2 fold change [20]
1 | CNP (UniProt P09543) | inactive: -0.031 | inactive: -0.055 | inactive: -0.038 | inactive: 0.003 | inactive: -0.03 | inactive: 0.005 | inactive: 0.043 | inactive: -0.019 | inactive: -0.014 | inactive: -0.014 | inactive: -0.134 | inactive: 0.034 | inactive: -0.011 | inactive: -0.056 | inactive: -0.037 | inactive: -0.051 | inactive: 0.02 | inactive: 0.02 | inactive: -0.076 | inactive: 0.027
2 | CLCN7 (UniProt P51798) | inactive: -0.24 | inactive: 0.083 | inactive: -0.035 | inactive: -0.012 | inactive: -0.091 | inactive: -0.111 | inactive: 0.011 | inactive: 0.049 | inactive: 0.038 | inactive: -0.02 | inactive: -0.009 | inactive: -0.162 | active: -0.674 | inactive: -0.048 | inactive: 0.07 | inactive: 0.054 | inactive: 0.107 | inactive: 0.036 | inactive: 0.021 | inactive: -0.078
3 | CNBP isoform 6 (UniProt P62633) | inactive: -0.019 | inactive: -0.08 | inactive: 0.003 | inactive: 0.027 | inactive: 0.118 | inactive: 0.021 | inactive: -0.088 | inactive: 0.038 | inactive: 0.087 | inactive: -0.006 | inactive: 0 | inactive: 0.001 | inactive: 0.162 | inactive: 0.062 | inactive: -0.023 | inactive: -0.047 | inactive: -0.017 | inactive: 0.064 | inactive: 0.097 | inactive: -0.036
4 | CLNS1A (UniProt P54105) | inactive: -0.015 | inactive: -0.043 | inactive: -0.001 | inactive: -0.002 | inactive: -0.058 | inactive: -0.045 | inactive: 0.08 | inactive: 0.022 | inactive: -0.02 | inactive: 0.024 | inactive: 0.017 | inactive: -0.018 | inactive: 0.024 | inactive: 0.005 | inactive: 0.02 | inactive: 0.014 | inactive: 0.019 | inactive: -0.022 | inactive: -0.042 | inactive: 0.019
5 | CLGN (UniProt O14967) | inactive: -0.052 | inactive: 0.007 | inactive: -0.073 | inactive: 0.054 | inactive: 0.054 | inactive: -0.014 | inactive: -0.167 | inactive: -0.139 | inactive: 0.067 | inactive: -0.027 | inactive: 0.035 | inactive: -0.196 | inactive: 0.012 | inactive: -0.075 | inactive: 0.002 | inactive: -0.003 | inactive: 0.01 | inactive: 0.051 | inactive: -0.133 | inactive: -0.056
6 | CLIC1 (UniProt O00299) | inactive: -0.037 | inactive: 0.016 | inactive: 0.013 | inactive: 0.003 | inactive: -0.011 | inactive: -0.005 | inactive: 0.024 | inactive: 0.01 | inactive: 0.013 | inactive: 0.02 | inactive: -0.046 | inactive: 0.016 | inactive: -0.009 | inactive: 0 | inactive: 0.006 | inactive: -0.008 | inactive: 0.008 | inactive: 0.016 | inactive: -0.072 | inactive: -0.027
7 | CMBL (UniProt Q96DG6) | inactive: -0.021 | inactive: -0.093 | inactive: 0.021 | inactive: 0.066 | inactive: 0.13 | inactive: -0.008 | inactive: -0.048 | inactive: 0.04 | inactive: 0 | inactive: -0.015 | inactive: -0.002 | inactive: -0.03 | inactive: 0.17 | inactive: -0.029 | inactive: -0.044 | inactive: 0.023 | inactive: 0.026 | inactive: -0.017 | inactive: -0.002 | inactive: 0.004
8 | CISD2 (UniProt Q8N5K1) | inactive: -0.057 | inactive: 0.025 | inactive: 0.019 | inactive: 0.026 | inactive: 0.054 | inactive: -0.021 | inactive: 0.045 | inactive: 0.001 | inactive: 0.069 | inactive: 0.011 | inactive: 0.027 | inactive: 0.006 | inactive: 0.022 | inactive: 0.007 | inactive: 0.006 | inactive: -0.05 | inactive: 0.015 | inactive: -0.003 | inactive: 0.002 | inactive: -0.034
9 | CIT isoform 4 (UniProt O14578) | inactive: -0.01 | inactive: 0.07 | inactive: -0.049 | inactive: -0.065 | inactive: -0.064 | inactive: -0.03 | inactive: 0.006 | inactive: -0.075 | inactive: -0.009 | inactive: 0.031 | inactive: -0.072 | inactive: -0.101 | inactive: -0.108 | inactive: 0 | inactive: 0.025 | inactive: 0.041 | inactive: -0.222 | inactive: 0.049 | inactive: 0.049 | inactive: 0.293
10 | CMSS1 (UniProt Q9BQ75) | inactive: 0.116 | inactive: -0.007 | inactive: -0.088 | inactive: -0.007 | inactive: -0.015 | inactive: 0.205 | inactive: -0.113 | inactive: -0.041 | inactive: -0.02 | inactive: 0.01 | inactive: 0.029 | inactive: 0.033 | inactive: 0.055 | inactive: -0.041 | inactive: 0.017 | inactive: 0.036 | inactive: 0.072 | inactive: 0.031 | inactive: 0.079 | inactive: -0.028
11 | CLPP (UniProt Q16740) | inactive: 0.025 | inactive: -0.045 | inactive: 0.022 | inactive: 0.005 | inactive: 0.063 | inactive: -0.016 | inactive: 0.115 | inactive: 0.02 | inactive: 0.003 | inactive: 0.004 | inactive: 0.044 | inactive: -0.027 | inactive: 0.027 | inactive: -0.008 | inactive: 0.029 | inactive: -0.05 | inactive: 0.027 | inactive: 0.007 | inactive: 0.096 | inactive: -0.031
12 | CNOT3 (UniProt O75175) | inactive: 0.022 | inactive: 0.082 | inactive: 0.011 | inactive: -0.018 | inactive: -0.029 | inactive: 0.011 | inactive: -0.017 | inactive: 0.03 | inactive: -0.096 | inactive: 0.002 | inactive: 0 | inactive: -0.031 | inactive: -0.045 | inactive: 0.057 | inactive: 0.005 | inactive: 0.081 | inactive: 0.072 | inactive: 0.017 | inactive: 0.006 | inactive: -0.01
13 | CHURC1 isoform 2 (UniProt Q8WUH1) | inactive: -0.093 | inactive: -0.037 | inactive: -0.015 | inactive: -0.04 | inactive: 0 | inactive: 0.066 | inactive: -0.073 | inactive: 0.034 | inactive: -0.049 | inactive: 0.008 | inactive: -0.008 | inactive: -0.031 | inactive: 0.015 | inactive: -0.021 | inactive: -0.026 | inactive: -0.038 | inactive: 0.068 | inactive: -0.061 | inactive: -0.124 | inactive: -0.066
14 | CLUH (UniProt O75153) | inactive: 0.007 | inactive: 0.045 | inactive: 0.191 | inactive: 0.108 | inactive: -0.093 | inactive: -0.068 | inactive: 0.067 | active: 0.478 | inactive: -0.022 | inactive: -0.018 | inactive: -0.002 | inactive: -0.072 | inactive: 0.023 | inactive: -0.025 | inactive: 0.022 | inactive: 0.05 | inactive: -0.08 | inactive: 0.063 | inactive: 0.133 | inactive: 0.041
15 | CNTN4 (UniProt Q8IWV2) | inactive: -0.109 | inactive: 0.008 | inactive: 0.06 | inactive: 0.01 | inactive: 0.003 | inactive: -0.13 | inactive: 0.131 | inactive: 0.032 | inactive: -0.097 | inactive: 0.224 | inactive: 0.016 | inactive: -0.056 | inactive: 0.614 | inactive: -0.085 | inactive: -0.106 | inactive: 0.017 | inactive: 0.141 | inactive: -0.197 | inactive: -0.18 | inactive: 0.088
16 | CKAP5 (UniProt Q14008) | inactive: 0.081 | inactive: 0.106 | inactive: -0.073 | inactive: -0.116 | inactive: -0.147 | inactive: -0.014 | inactive: -0.02 | inactive: -0.056 | inactive: -0.12 | inactive: -0.021 | inactive: -0.005 | inactive: -0.032 | inactive: -0.093 | inactive: -0.035 | inactive: 0.04 | inactive: 0.113 | inactive: 0.048 | inactive: 0.032 | inactive: 0.141 | inactive: -0.117

Records 1–3, reprinted for reference:
Row | Target | log2 fold change [1] | log2 fold change [2] | log2 fold change [3] | log2 fold change [4] | log2 fold change [5] | log2 fold change [6] | log2 fold change [7] | log2 fold change [8] | log2 fold change [9] | log2 fold change [10] | log2 fold change [11] | log2 fold change [12] | log2 fold change [13] | log2 fold change [14] | log2 fold change [15] | log2 fold change [16] | log2 fold change [17] | log2 fold change [18] | log2 fold change [19] | log2 fold change [20]
1 | CNP (UniProt P09543) | inactive: -0.031 | inactive: -0.055 | inactive: -0.038 | inactive: 0.003 | inactive: -0.03 | inactive: 0.005 | inactive: 0.043 | inactive: -0.019 | inactive: -0.014 | inactive: -0.014 | inactive: -0.134 | inactive: 0.034 | inactive: -0.011 | inactive: -0.056 | inactive: -0.037 | inactive: -0.051 | inactive: 0.02 | inactive: 0.02 | inactive: -0.076 | inactive: 0.027
2 | CLCN7 (UniProt P51798) | inactive: -0.24 | inactive: 0.083 | inactive: -0.035 | inactive: -0.012 | inactive: -0.091 | inactive: -0.111 | inactive: 0.011 | inactive: 0.049 | inactive: 0.038 | inactive: -0.02 | inactive: -0.009 | inactive: -0.162 | active: -0.674 | inactive: -0.048 | inactive: 0.07 | inactive: 0.054 | inactive: 0.107 | inactive: 0.036 | inactive: 0.021 | inactive: -0.078
3 | CNBP isoform 6 (UniProt P62633) | inactive: -0.019 | inactive: -0.08 | inactive: 0.003 | inactive: 0.027 | inactive: 0.118 | inactive: 0.021 | inactive: -0.088 | inactive: 0.038 | inactive: 0.087 | inactive: -0.006 | inactive: 0 | inactive: 0.001 | inactive: 0.162 | inactive: 0.062 | inactive: -0.023 | inactive: -0.047 | inactive: -0.017 | inactive: 0.064 | inactive: 0.097 | inactive: -0.036
